The list shows a part of the results.
The targets below were run with Cc1cc(ccc1-c1ccccc1)C(=O)N1CCCN(CC1)C(=O)CCl [compound 10] (assay: probe-labelled cysteine peptide fold change vs DMSO (competition) (log2 fold change); higher = less target engagement (more negative = stronger competition)). Conditions: 10 µM; THP-1; incubation time: 4 h.
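Further: competitive profiling in live THP-1 cells: cysteine peptides tagged with an iodoacetamide desthiobiotin (IA-DTB) probe, intensity after compound treatment relative to DMSO-treated cells.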

Chains of the proteins cited; added tags and fusions are not shown. Lines headed by an entry give the natural chain unless they say otherwise; changes in a name come on top.
UniProt Q14BN4: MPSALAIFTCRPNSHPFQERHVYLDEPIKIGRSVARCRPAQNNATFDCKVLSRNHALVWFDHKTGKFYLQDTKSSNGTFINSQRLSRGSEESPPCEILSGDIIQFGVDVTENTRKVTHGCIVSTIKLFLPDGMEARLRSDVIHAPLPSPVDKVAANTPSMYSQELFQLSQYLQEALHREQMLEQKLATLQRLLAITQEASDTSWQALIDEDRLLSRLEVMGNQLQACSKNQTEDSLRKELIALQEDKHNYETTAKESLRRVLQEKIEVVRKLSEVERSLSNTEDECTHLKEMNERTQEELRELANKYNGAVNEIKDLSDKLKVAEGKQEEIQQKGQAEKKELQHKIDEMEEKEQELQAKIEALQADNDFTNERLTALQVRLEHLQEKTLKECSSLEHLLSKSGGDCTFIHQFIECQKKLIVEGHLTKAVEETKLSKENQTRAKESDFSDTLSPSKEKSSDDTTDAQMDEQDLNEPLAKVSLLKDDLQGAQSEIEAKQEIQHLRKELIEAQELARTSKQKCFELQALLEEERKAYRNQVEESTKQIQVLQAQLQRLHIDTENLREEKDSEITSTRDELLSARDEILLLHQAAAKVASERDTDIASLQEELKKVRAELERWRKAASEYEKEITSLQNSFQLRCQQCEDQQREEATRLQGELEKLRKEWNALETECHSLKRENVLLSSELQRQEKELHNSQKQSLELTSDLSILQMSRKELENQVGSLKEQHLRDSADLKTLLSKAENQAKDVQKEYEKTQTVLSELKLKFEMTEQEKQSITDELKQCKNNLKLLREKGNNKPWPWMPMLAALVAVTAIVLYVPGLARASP
UniProt Q14683: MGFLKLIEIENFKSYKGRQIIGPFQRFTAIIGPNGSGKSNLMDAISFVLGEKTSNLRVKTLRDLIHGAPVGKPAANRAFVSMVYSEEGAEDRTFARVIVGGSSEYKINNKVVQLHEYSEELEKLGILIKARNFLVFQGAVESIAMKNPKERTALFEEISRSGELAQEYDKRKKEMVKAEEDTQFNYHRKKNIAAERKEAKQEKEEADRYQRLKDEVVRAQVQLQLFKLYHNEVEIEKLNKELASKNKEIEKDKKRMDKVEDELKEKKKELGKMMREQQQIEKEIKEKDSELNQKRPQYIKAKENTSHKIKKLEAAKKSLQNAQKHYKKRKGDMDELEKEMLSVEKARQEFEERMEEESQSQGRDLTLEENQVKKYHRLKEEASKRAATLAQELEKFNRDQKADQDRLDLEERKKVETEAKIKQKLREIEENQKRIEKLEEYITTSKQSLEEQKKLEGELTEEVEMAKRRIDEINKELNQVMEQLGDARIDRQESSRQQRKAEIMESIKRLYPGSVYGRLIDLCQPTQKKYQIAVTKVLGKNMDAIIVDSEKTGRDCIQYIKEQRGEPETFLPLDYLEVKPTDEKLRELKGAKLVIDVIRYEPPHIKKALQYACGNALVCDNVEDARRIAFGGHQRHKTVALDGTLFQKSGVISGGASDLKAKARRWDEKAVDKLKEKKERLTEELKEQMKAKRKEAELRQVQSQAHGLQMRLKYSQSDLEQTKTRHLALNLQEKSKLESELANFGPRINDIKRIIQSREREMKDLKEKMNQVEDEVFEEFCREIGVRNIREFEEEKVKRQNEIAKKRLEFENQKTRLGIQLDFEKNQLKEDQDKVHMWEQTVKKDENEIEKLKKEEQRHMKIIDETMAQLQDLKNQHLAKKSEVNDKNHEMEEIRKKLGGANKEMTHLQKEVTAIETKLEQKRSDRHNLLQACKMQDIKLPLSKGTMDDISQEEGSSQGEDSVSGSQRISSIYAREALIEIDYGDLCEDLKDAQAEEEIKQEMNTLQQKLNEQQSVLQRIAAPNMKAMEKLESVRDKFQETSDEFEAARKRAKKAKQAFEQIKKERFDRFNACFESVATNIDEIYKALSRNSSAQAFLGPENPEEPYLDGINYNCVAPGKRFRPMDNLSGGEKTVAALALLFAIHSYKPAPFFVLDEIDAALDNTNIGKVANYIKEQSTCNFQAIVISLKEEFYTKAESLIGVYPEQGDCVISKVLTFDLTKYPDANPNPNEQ
UniProt P62316, whole entry, looked up: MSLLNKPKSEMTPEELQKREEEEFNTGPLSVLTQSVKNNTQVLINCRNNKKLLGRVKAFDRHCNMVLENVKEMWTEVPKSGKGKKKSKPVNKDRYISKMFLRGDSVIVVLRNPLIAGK
UniProt P03973: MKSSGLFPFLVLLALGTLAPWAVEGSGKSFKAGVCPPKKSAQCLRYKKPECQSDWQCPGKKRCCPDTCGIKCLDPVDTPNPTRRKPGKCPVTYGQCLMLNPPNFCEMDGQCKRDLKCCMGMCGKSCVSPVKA
UniProt P51531, whole entry, looked up: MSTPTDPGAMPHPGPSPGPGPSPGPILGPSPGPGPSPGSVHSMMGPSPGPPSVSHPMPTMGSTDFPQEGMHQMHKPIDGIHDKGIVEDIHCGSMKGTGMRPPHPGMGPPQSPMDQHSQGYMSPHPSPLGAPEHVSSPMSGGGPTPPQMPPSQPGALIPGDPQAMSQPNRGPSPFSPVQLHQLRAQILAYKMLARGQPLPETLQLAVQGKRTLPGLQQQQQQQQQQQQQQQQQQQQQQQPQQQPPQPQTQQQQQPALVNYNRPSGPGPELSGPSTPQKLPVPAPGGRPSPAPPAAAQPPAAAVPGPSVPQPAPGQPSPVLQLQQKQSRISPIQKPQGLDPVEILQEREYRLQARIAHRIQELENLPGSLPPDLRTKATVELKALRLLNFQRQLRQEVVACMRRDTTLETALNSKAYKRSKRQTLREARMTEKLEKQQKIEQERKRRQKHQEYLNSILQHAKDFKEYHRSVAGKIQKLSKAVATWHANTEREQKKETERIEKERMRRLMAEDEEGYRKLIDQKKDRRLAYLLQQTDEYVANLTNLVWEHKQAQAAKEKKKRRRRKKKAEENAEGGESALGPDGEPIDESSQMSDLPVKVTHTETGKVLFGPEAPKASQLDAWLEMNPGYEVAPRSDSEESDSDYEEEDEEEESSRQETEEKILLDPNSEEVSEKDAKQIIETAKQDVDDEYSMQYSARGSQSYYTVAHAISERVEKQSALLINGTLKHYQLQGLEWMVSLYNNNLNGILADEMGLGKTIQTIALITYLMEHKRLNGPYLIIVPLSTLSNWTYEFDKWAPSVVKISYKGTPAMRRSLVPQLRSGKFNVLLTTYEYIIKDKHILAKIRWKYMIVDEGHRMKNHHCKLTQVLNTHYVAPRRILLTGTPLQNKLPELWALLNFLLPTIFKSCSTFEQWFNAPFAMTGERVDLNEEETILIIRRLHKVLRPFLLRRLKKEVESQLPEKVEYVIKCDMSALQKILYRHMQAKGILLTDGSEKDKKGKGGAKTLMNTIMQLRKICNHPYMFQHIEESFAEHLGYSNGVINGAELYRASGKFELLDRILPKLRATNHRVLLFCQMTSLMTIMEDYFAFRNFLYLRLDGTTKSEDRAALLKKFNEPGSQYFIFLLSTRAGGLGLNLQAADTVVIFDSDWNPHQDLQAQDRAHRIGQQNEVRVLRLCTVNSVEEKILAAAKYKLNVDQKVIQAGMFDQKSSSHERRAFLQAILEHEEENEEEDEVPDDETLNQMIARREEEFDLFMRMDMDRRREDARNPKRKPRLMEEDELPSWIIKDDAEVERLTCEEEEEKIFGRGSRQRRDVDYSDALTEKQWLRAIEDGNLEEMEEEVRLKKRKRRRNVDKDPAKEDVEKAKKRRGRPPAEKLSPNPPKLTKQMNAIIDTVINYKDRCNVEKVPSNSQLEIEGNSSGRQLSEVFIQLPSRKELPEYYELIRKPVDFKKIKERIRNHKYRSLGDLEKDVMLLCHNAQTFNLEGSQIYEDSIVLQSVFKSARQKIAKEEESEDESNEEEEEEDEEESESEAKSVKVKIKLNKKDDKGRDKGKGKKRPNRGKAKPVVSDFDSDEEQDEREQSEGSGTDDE
UniProt P19634, whole entry: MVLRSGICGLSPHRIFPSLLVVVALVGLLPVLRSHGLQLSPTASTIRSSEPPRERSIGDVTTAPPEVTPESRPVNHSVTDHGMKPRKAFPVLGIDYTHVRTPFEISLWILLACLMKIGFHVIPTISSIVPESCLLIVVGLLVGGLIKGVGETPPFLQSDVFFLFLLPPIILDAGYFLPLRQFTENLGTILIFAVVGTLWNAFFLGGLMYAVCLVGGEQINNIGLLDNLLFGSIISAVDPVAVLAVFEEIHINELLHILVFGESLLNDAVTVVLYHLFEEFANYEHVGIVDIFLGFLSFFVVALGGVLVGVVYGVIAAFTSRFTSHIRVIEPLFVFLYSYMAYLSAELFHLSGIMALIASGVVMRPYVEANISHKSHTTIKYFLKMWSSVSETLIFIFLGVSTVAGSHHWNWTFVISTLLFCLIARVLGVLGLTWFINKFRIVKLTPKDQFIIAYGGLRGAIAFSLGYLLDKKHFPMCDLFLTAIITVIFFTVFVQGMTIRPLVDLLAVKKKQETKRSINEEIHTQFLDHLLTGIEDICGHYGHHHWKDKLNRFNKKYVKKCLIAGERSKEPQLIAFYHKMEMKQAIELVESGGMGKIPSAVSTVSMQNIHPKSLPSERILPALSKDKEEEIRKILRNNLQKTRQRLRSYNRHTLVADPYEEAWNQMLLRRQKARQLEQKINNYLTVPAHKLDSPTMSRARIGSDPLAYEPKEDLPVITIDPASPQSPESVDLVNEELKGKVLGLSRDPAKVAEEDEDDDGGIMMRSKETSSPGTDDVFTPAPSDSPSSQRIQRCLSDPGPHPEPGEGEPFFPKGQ
UniProt Q8IY92: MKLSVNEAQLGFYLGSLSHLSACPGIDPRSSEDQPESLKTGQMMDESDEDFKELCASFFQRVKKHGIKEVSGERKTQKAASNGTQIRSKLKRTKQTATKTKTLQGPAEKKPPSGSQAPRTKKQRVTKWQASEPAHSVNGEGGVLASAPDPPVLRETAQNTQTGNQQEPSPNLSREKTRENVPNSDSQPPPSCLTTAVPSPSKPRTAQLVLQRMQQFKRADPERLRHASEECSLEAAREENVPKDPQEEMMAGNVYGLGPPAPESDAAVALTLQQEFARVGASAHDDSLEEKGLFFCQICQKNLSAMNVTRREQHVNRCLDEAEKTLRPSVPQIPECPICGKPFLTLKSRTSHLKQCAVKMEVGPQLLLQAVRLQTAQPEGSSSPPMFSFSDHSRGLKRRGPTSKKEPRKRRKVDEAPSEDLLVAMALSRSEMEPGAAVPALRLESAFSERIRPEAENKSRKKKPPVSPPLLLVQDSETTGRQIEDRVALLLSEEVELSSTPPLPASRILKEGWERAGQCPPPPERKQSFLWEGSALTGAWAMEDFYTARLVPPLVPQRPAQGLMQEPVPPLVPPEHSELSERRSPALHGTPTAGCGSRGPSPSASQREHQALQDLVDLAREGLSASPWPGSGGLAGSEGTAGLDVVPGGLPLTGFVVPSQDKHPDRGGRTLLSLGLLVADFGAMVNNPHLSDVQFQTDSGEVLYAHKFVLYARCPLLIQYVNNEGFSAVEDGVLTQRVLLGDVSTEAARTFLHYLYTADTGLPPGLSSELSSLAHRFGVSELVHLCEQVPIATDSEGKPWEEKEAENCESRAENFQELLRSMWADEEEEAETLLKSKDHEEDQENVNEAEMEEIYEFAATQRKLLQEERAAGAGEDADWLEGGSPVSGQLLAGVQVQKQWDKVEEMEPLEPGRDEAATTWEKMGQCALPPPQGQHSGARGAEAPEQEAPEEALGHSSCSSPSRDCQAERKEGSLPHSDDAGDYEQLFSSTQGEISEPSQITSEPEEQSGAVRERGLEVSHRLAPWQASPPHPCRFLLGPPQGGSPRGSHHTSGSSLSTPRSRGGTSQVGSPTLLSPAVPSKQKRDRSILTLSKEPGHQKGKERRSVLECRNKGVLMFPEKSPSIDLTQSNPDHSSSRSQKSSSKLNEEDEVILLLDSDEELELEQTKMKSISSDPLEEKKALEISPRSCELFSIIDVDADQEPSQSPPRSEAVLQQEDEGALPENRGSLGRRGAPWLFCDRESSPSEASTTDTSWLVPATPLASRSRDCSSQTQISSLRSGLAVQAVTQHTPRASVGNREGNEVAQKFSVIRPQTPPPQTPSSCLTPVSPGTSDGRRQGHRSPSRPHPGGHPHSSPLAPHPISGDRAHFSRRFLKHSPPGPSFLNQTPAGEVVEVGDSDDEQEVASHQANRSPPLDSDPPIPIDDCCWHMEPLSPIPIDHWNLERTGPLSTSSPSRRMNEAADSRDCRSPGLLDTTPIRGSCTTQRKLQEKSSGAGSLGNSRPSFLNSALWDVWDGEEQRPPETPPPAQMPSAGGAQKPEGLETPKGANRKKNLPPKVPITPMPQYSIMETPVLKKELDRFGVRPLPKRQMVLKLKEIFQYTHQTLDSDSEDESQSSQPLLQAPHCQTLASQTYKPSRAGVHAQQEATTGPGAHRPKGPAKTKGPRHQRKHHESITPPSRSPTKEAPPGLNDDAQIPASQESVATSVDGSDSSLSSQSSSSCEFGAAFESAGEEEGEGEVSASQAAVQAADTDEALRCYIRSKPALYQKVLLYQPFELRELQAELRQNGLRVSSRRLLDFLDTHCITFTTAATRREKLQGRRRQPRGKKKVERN

Target | probe-labelled cysteine peptide fold change
SMS_P52788_337_LYCPVEFSK (UniProt P52788) | 0.0759
SNRNP200_O75643_576_RLATYGITVAELTGDHQLCK (UniProt O75643) | -0.0412
SLMAP_Q14BN4_673_EWNALETECHSLK (UniProt Q14BN4) | 0.314
SLC4A7_Q9Y6M7_120_VQFILGTEDDDEEHIPHDLFTEMDELCYR (UniProt Q9Y6M7) | -0.182
SMG1_Q96Q15_2396_LSCEQVLHIMR (UniProt Q96Q15) | 0.123
SMC1A_Q14683_613+619_ALQYACGNALVCDNVEDARR (UniProt Q14683) | -0.252
SNRPD2_P62316_63_AFDRHCNMVLENVK (UniProt P62316) | -0.144
SLU7_O95391_445_CCHSFFK (UniProt O95391) | 0.00556
SMC5_Q8IY18_229_QLETSCK (UniProt Q8IY18) | -0.019
SMURF2_Q9HAU4_47_VVVDGSGQCHSTDTVK (UniProt Q9HAU4) | 0.0963
SMARCC1_Q92922_520_NLTGDVCAVMR (UniProt Q92922) | 0.0738
SNRNP200_O75643_1706_CVIMCQGSKK (UniProt O75643) | -0.335
SMARCD2_Q92925_298_CTLLLMLDHQPPQYK (UniProt Q92925) | 0.0597
SMG1_Q96Q15_1245_FVECTEQLELLPGENINLLAGGSK (UniProt Q96Q15) | -0.138
SNRNP200_O75643_1359_TICAEFAILR (UniProt O75643) | 0.0052
SLPI_P03973_51+57_YKKPECQSDWQCPGK (UniProt P03973) | -0.847
SNRNP200_O75643_1731_FLYEPLPVESHLDHCMHDHFNAEIVTK (UniProt O75643) | 0.129
SMC4_Q9NTJ3_323_KNHVCQYYIYELQK (UniProt Q9NTJ3) | -0.102
SLC4A1AP_Q9BWU0_125_EGPTALQDSNSGEPDIPPPQPDCGDFR (UniProt Q9BWU0) | -0.235
SMU1_Q2TAY7_383_TTECSNTFK (UniProt Q2TAY7) | -0.00672

Target | probe-labelled cysteine peptide fold change
SMC3_Q9UQE7_650_AFTMDCITLEGDQVSHR (UniProt Q9UQE7) | 0.147
SLC7A6OS_Q96CW6_62_AAENNVFHLVATVCSQEEPVQPLLR (UniProt Q96CW6) | 0.249
SMG7_Q92540_537_NLSNNCDTGEKPVVTFK (UniProt Q92540) | -0.196
SMARCA2_P51531_91_GIVEDIHCGSMK (UniProt P51531) | -0.144
SMC4_Q9NTJ3_110_RFSCIIGPNGSGK (UniProt Q9NTJ3) | -0.0701
SMCHD1_A6NHR9_505_GLAPIECYNR (UniProt A6NHR9) | -0.01
SLC9A1_P19634_794_CLSDPGPHPEPGEGEPFFPK (UniProt P19634) | -0.234
SLC4A1AP_Q9BWU0_430_EAMIQCSLEACR (UniProt Q9BWU0) | 0.0766
SMARCC2_Q8TAQ2_80_CFLDFK (UniProt Q8TAQ2) | -0.0668
SLFN11_Q7Z7L1_884_TADPAILPNVLICLASR (UniProt Q7Z7L1) | 0.0806
SMS_P52788_237_TCGDVLDNLK (UniProt P52788) | 0.00123
SMCHD1_A6NHR9_1445_DNDKEDGCFYFR (UniProt A6NHR9) | -0.115
SLX4_Q8IY92_786_FGVSELVHLCEQVPIATDSEGKPWEEK (UniProt Q8IY92) | 0.264
SND1_Q7KZF4_826+837_DIQNTQCLLNVEHLSAGCPHVTLQFADSKGDVGLGLVK (UniProt Q7KZF4) | -0.0831
SMCHD1_A6NHR9_474_GKRPIFECFWNGR (UniProt A6NHR9) | -0.0837
SMG8_Q8ND04_755_QASTVEYLPGMLHSNCPK (UniProt Q8ND04) | -0.0863
SLC43A3_Q8NBI5_226_GHIPYPLPPNYSYGLCPGNGTTK (UniProt Q8NBI5) | -0.217
SMC1A_Q14683_613_ALQYACGNALVCDNVEDARR (UniProt Q14683) | -0.0363
SNRPB_P14678_45_HMNLILCDCDEFR (UniProt P14678) | 0.245

Same assay, conditions: 50 µM; THP-1; incubation time: 4 h

Target | probe-labelled cysteine peptide fold change
SMS_P52788_337_LYCPVEFSK (UniProt P52788) | 0.136
SNRNP200_O75643_576_RLATYGITVAELTGDHQLCK (UniProt O75643) | 0.0936
SLMAP_Q14BN4_673_EWNALETECHSLK (UniProt Q14BN4) | 0.539
SLC4A7_Q9Y6M7_120_VQFILGTEDDDEEHIPHDLFTEMDELCYR (UniProt Q9Y6M7) | 0.386
SMG1_Q96Q15_2396_LSCEQVLHIMR (UniProt Q96Q15) | 0.266
SMC1A_Q14683_613+619_ALQYACGNALVCDNVEDARR (UniProt Q14683) | -0.0812
SNRPD2_P62316_63_AFDRHCNMVLENVK (UniProt P62316) | -0.738
SLU7_O95391_445_CCHSFFK (UniProt O95391) | 0.117
SMC5_Q8IY18_229_QLETSCK (UniProt Q8IY18) | -0.0908
SMURF2_Q9HAU4_47_VVVDGSGQCHSTDTVK (UniProt Q9HAU4) | -0.248
SMARCC1_Q92922_520_NLTGDVCAVMR (UniProt Q92922) | 0.013
SNRNP200_O75643_1706_CVIMCQGSKK (UniProt O75643) | -0.344
SMARCD2_Q92925_298_CTLLLMLDHQPPQYK (UniProt Q92925) | 0.105
SMG1_Q96Q15_1245_FVECTEQLELLPGENINLLAGGSK (UniProt Q96Q15) | -0.257
SNRNP200_O75643_1359_TICAEFAILR (UniProt O75643) | 0.0694
SLPI_P03973_51+57_YKKPECQSDWQCPGK (UniProt P03973) | -1.07
SNRNP200_O75643_1731_FLYEPLPVESHLDHCMHDHFNAEIVTK (UniProt O75643) | 0.126
SMC4_Q9NTJ3_323_KNHVCQYYIYELQK (UniProt Q9NTJ3) | -0.347
SLC4A1AP_Q9BWU0_125_EGPTALQDSNSGEPDIPPPQPDCGDFR (UniProt Q9BWU0) | -0.383
SMU1_Q2TAY7_383_TTECSNTFK (UniProt Q2TAY7) | 0.086

Target | probe-labelled cysteine peptide fold change
SMC3_Q9UQE7_650_AFTMDCITLEGDQVSHR (UniProt Q9UQE7) | 0.286
SLC7A6OS_Q96CW6_62_AAENNVFHLVATVCSQEEPVQPLLR (UniProt Q96CW6) | -0.159
SMG7_Q92540_537_NLSNNCDTGEKPVVTFK (UniProt Q92540) | -0.392
SMARCA2_P51531_91_GIVEDIHCGSMK (UniProt P51531) | -0.439
SMC4_Q9NTJ3_110_RFSCIIGPNGSGK (UniProt Q9NTJ3) | 0.0176
SMCHD1_A6NHR9_505_GLAPIECYNR (UniProt A6NHR9) | 0.164
SLC9A1_P19634_794_CLSDPGPHPEPGEGEPFFPK (UniProt P19634) | -0.0551
SLC4A1AP_Q9BWU0_430_EAMIQCSLEACR (UniProt Q9BWU0) | -0.743
SMARCC2_Q8TAQ2_80_CFLDFK (UniProt Q8TAQ2) | -0.0784
SLFN11_Q7Z7L1_884_TADPAILPNVLICLASR (UniProt Q7Z7L1) | -0.324
SMS_P52788_237_TCGDVLDNLK (UniProt P52788) | 0.12
SMCHD1_A6NHR9_1445_DNDKEDGCFYFR (UniProt A6NHR9) | 0.171
SLX4_Q8IY92_786_FGVSELVHLCEQVPIATDSEGKPWEEK (UniProt Q8IY92) | 0.222
SND1_Q7KZF4_826+837_DIQNTQCLLNVEHLSAGCPHVTLQFADSKGDVGLGLVK (UniProt Q7KZF4) | -0.937
SMCHD1_A6NHR9_474_GKRPIFECFWNGR (UniProt A6NHR9) | -0.248
SMG8_Q8ND04_755_QASTVEYLPGMLHSNCPK (UniProt Q8ND04) | -0.362
SLC43A3_Q8NBI5_226_GHIPYPLPPNYSYGLCPGNGTTK (UniProt Q8NBI5) | -0.0751
SMC1A_Q14683_613_ALQYACGNALVCDNVEDARR (UniProt Q14683) | 0.0794
SNRPB_P14678_45_HMNLILCDCDEFR (UniProt P14678) | 0.299

— the supplement of paper PMC12067093, “Discovery and optimisation of a covalent ligand for TRIM25 and its application to targeted protein ubiquitination” (Chemical Science, 2025)
